The supplement of paper PMC7661543
Differences between knockout arms are mostly noise.

System: HCC-38
Test: relative cell number vs DMSO control (72 h) (% of DMSO); higher = less growth inhibition (more cells)
Procedure: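 QMAP-Seq: a pool of 5 breast cancer cell lines (ZR-75-1, SKBR3, HCC-38, MDA-MB-231, BT-20), each carrying 12 doxycycline-inducible Cas9 sgRNA perturbations (11 knockouts plus non-targeting sgNT), was treated with compounds for 72 h at four 10-fold doses (10 nM-10 uM or 1 nM-1 uM range). Barcodes were amplified and sequenced, and cell number was interpolated from 293T spike-in standard curves. The result is expressed as % of the median of DMSO wells. Two biological replicates.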

CO[C@H]1C[C@@H]2CC[C@@H](C)[C@@](O)(O2)C(=O)C(=O)N2CCCC[C@H]2C(=O)O[C@H]([C@H](C)C[C@@H]2CC[C@@H](OCCO)[C@H](OC)C2)CC(=O)[C@H](C)/C=C(\C)[C@@H](O)[C@@H](OC)C(=O)[C@H](C)C[C@H](C)/C=C/C=C/C=C/1C [Everolimus]
Settings | relative cell number
sgRNA knockout: sgATF3, 1 nM | 63.5
sgRNA knockout: sgATF3, 10 nM | 54.1
sgRNA knockout: sgATF3, 100 nM | 61.1
sgRNA knockout: sgATF3, 1000 nM | 65.5
sgRNA knockout: sgATF4, 1 nM | 61.2
sgRNA knockout: sgATF4, 10 nM | 57.3
sgRNA knockout: sgATF4, 100 nM | 63.3
sgRNA knockout: sgATF4, 1000 nM | 62.6
sgRNA knockout: sgATF6, 1 nM | 65.8
sgRNA knockout: sgATF6, 10 nM | 57.8
sgRNA knockout: sgATF6, 100 nM | 62.5
sgRNA knockout: sgATF6, 1000 nM | 58.7
sgRNA knockout: sgATG7, 1 nM | 57.7
sgRNA knockout: sgATG7, 10 nM | 56.1
sgRNA knockout: sgATG7, 100 nM | 63.3
sgRNA knockout: sgATG7, 1000 nM | 66.3
sgRNA knockout: sgERN1, 1 nM | 62.3
sgRNA knockout: sgERN1, 10 nM | 59.1
sgRNA knockout: sgERN1, 100 nM | 69.29
sgRNA knockout: sgERN1, 1000 nM | 68.02
sgRNA knockout: sgHSF1, 1 nM | 65.9
sgRNA knockout: sgHSF1, 10 nM | 61.1
sgRNA knockout: sgHSF1, 100 nM | 62.9
sgRNA knockout: sgHSF1, 1000 nM | 73.1
sgRNA knockout: sgHSF2, 1 nM | 66.4
sgRNA knockout: sgHSF2, 10 nM | 59.9
sgRNA knockout: sgHSF2, 100 nM | 65.5
sgRNA knockout: sgHSF2, 1000 nM | 62.7
sgRNA knockout: sgKEAP1, 1 nM | 61.8
sgRNA knockout: sgKEAP1, 10 nM | 62.5
sgRNA knockout: sgKEAP1, 100 nM | 65.5
sgRNA knockout: sgKEAP1, 1000 nM | 65.3
sgRNA knockout: sgNFE2L2, 1 nM | 62.8
sgRNA knockout: sgNFE2L2, 10 nM | 55.7
sgRNA knockout: sgNFE2L2, 100 nM | 63.9
sgRNA knockout: sgNFE2L2, 1000 nM | 59.3
sgRNA knockout: sgSLC35F2, 1 nM | 61.7
sgRNA knockout: sgSLC35F2, 10 nM | 59.9
sgRNA knockout: sgSLC35F2, 100 nM | 65.8
sgRNA knockout: sgSLC35F2, 1000 nM | 68.6
sgRNA knockout: sgXBP1, 1 nM | 62.4
sgRNA knockout: sgXBP1, 10 nM | 59.6
sgRNA knockout: sgXBP1, 100 nM | 63.9
sgRNA knockout: sgXBP1, 1000 nM | 60.7

CC1(C)CCC(c2ccc(Cl)cc2)=C(CN2CCN(c3ccc(C(=O)NS(=O)(=O)c4ccc(N[C@H](CCN5CCOCC5)CSc5ccccc5)c(S(=O)(=O)C(F)(F)F)c4)cc3)CC2)C1 [Navitoclax]
Settings | relative cell number
sgRNA knockout: sgATF3, 10 nM | 93.4
sgRNA knockout: sgATF3, 100 nM | 106
sgRNA knockout: sgATF3, 1000 nM | 76.1
sgRNA knockout: sgATF3, 10000 nM | 49.5
sgRNA knockout: sgATF4, 10 nM | 86.3
sgRNA knockout: sgATF4, 100 nM | 100
sgRNA knockout: sgATF4, 1000 nM | 89.5
sgRNA knockout: sgATF4, 10000 nM | 61.405
sgRNA knockout: sgATF6, 10 nM | 101
sgRNA knockout: sgATF6, 100 nM | 101
sgRNA knockout: sgATF6, 1000 nM | 86.2
sgRNA knockout: sgATF6, 10000 nM | 50.7
sgRNA knockout: sgATG7, 10 nM | 91
sgRNA knockout: sgATG7, 100 nM | 101
sgRNA knockout: sgATG7, 1000 nM | 68.9
sgRNA knockout: sgATG7, 10000 nM | 46.1
sgRNA knockout: sgERN1, 10 nM | 90.2
sgRNA knockout: sgERN1, 100 nM | 103.4
sgRNA knockout: sgERN1, 1000 nM | 77.6
sgRNA knockout: sgERN1, 10000 nM | 49.6
sgRNA knockout: sgHSF1, 10 nM | 102
sgRNA knockout: sgHSF1, 100 nM | 107
sgRNA knockout: sgHSF1, 1000 nM | 83.8
sgRNA knockout: sgHSF1, 10000 nM | 47
sgRNA knockout: sgHSF2, 10 nM | 98.6
sgRNA knockout: sgHSF2, 100 nM | 113
sgRNA knockout: sgHSF2, 1000 nM | 69.3
sgRNA knockout: sgHSF2, 10000 nM | 57.84
sgRNA knockout: sgKEAP1, 10 nM | 95.6
sgRNA knockout: sgKEAP1, 100 nM | 110
sgRNA knockout: sgKEAP1, 1000 nM | 74.6
sgRNA knockout: sgKEAP1, 10000 nM | 39.8
sgRNA knockout: sgNFE2L2, 10 nM | 92.3
sgRNA knockout: sgNFE2L2, 100 nM | 96.3
sgRNA knockout: sgNFE2L2, 1000 nM | 86
sgRNA knockout: sgNFE2L2, 10000 nM | 51
sgRNA knockout: sgSLC35F2, 10 nM | 94.78
sgRNA knockout: sgSLC35F2, 100 nM | 105
sgRNA knockout: sgSLC35F2, 1000 nM | 74.1
sgRNA knockout: sgSLC35F2, 10000 nM | 51.5
sgRNA knockout: sgXBP1, 10 nM | 91.4
sgRNA knockout: sgXBP1, 100 nM | 100
sgRNA knockout: sgXBP1, 1000 nM | 71.5
sgRNA knockout: sgXBP1, 10000 nM | 48.3

C=C(c1ccc(C(=O)O)cc1)c1cc2c(cc1C)C(C)(C)CCC2(C)C [Bexarotene]
Settings | relative cell number
sgRNA knockout: sgATF3, 10 nM | 92
sgRNA knockout: sgATF3, 100 nM | 91.7
sgRNA knockout: sgATF3, 1000 nM | 100
sgRNA knockout: sgATF3, 10000 nM | 109
sgRNA knockout: sgATF4, 10 nM | 86.1
sgRNA knockout: sgATF4, 100 nM | 92.6
sgRNA knockout: sgATF4, 1000 nM | 104
sgRNA knockout: sgATF4, 10000 nM | 107
sgRNA knockout: sgATF6, 10 nM | 90.8
sgRNA knockout: sgATF6, 100 nM | 87.1
sgRNA knockout: sgATF6, 1000 nM | 107
sgRNA knockout: sgATF6, 10000 nM | 118
sgRNA knockout: sgATG7, 10 nM | 85.5
sgRNA knockout: sgATG7, 100 nM | 100
sgRNA knockout: sgATG7, 1000 nM | 104
sgRNA knockout: sgATG7, 10000 nM | 100
sgRNA knockout: sgERN1, 10 nM | 92.1
sgRNA knockout: sgERN1, 100 nM | 89.6
sgRNA knockout: sgERN1, 1000 nM | 99.6
sgRNA knockout: sgERN1, 10000 nM | 98.7
sgRNA knockout: sgHSF1, 10 nM | 94.9
sgRNA knockout: sgHSF1, 100 nM | 81.3
sgRNA knockout: sgHSF1, 1000 nM | 116.33
sgRNA knockout: sgHSF1, 10000 nM | 106
sgRNA knockout: sgHSF2, 10 nM | 97.9
sgRNA knockout: sgHSF2, 100 nM | 88
sgRNA knockout: sgHSF2, 1000 nM | 114
sgRNA knockout: sgHSF2, 10000 nM | 108
sgRNA knockout: sgKEAP1, 10 nM | 113
sgRNA knockout: sgKEAP1, 100 nM | 106
sgRNA knockout: sgKEAP1, 1000 nM | 124
sgRNA knockout: sgKEAP1, 10000 nM | 95.1
sgRNA knockout: sgNFE2L2, 10 nM | 82.3
sgRNA knockout: sgNFE2L2, 100 nM | 91
sgRNA knockout: sgNFE2L2, 1000 nM | 99.4
sgRNA knockout: sgNFE2L2, 10000 nM | 114
sgRNA knockout: sgSLC35F2, 10 nM | 82.2
sgRNA knockout: sgSLC35F2, 100 nM | 94.6
sgRNA knockout: sgSLC35F2, 1000 nM | 106
sgRNA knockout: sgSLC35F2, 10000 nM | 106
sgRNA knockout: sgXBP1, 10 nM | 82.3
sgRNA knockout: sgXBP1, 100 nM | 100
sgRNA knockout: sgXBP1, 1000 nM | 102
sgRNA knockout: sgXBP1, 10000 nM | 101
